These results are taken from patent US12656356B2, “Pregabalin immunoassays” (ARK Diagnostics, Inc., priority 2015, dated 2026).

A short description of the data set: Analytical recovery of pregabalin spiked into human urine.

Take `CC(C)C[C@H](CN)CC(=O)O` [Pregabalin, (S)-3-(aminomethyl)-5-methylhexanoic acid]: the “Mean” value is, setting by setting: (spiked level 200 ng/mL in human urine) 197.9 ng/mL; (spiked level 400 ng/mL in human urine) 378.3 ng/mL; (spiked level 800 ng/mL in human urine) 778.6 ng/mL; (spiked level 1500 ng/mL in human urine) 1361.2 ng/mL.
